According to patent US7994339B2, “Phthalamide derivative, agricultural or horticultural pesticide, and use of the pesticide” (Nihon Nohyaku Co., Ltd., priority 2005, dated 2011):
Some entries share one result that the patent states for a list of compounds.

Columns and labels:
Format in all cases: in vivo
[1] = system: Spodoptera litura; assay: Insecticidal test on Spodoptera litura (cabbage leaf dip, second-instar larvae); details: 500 ppm, cabbage leaves dipped about 30 seconds, 25° C., counted eight days after inoculation
[2] = system: Smaller Tea Tortrix (Adoxophyes sp.); assay: Insecticidal test on smaller tea tortrix (tea leaf dip, larvae); details: 500 ppm, tea leaves dipped about 30 seconds, 25° C., humidity 70%, counted eight days after inoculation
[3] = system: Diamondback Moth (Plutella xylostella); assay: Insecticidal test on diamondback moth (egg-bearing Chinese cabbage seedlings dipped in drug solution); details: 50 ppm, seedlings with eggs dipped about 30 seconds, 25° C., counted six days after dipping

Measured: Insect mortality (rank of insecticidal activity)

3-iodo-N^1-[4-(5-n-heptafluoropropyltetrazol-1-yl)-2-methylphenyl]-N^2-(1,1-dimethyl-2-methylsulfonylethyl)phthalamide [Compound 3-21]
A (Insect mortality 100%): all assays above
